Our source for the percent viability values is the supplement of paper PMC8256030.

“And” between values parts separate entries of the source, which are not always exact repeats. Equal values may be shown once. Some of the results follow. Repeats in this data set agree poorly, so a single value says little.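 HEK293T cells were given each compound shortly before transfection with a reporter in which red mCherry is followed by the SARS-CoV-2 frameshift element and then GFP in the −1 frame, so GFP appears only after frameshifting.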

This assay deals with HEK293T. Briefly: percent viability (nuclei count) relative to control; higher = more viable cells. The conditions noted are these: 10 µM; 24 h.
On to `CCOC(=O)c1cnc2cc(OCC(C)C)c(OCC(C)C)cc2c1O` [buquinolate], for which the percent viability was determined as 164%.
Next, `CCc1cc(C(N)=S)ccn1` [ethionamide]: 110%; `CCC1(CC)O[C@@H]2C[C@H]3[C@@H]4CCC5=CC(=O)C=C[C@]5(C)[C@@]4(F)[C@@H](O)C[C@]3(C)[C@]2(C(=O)CO)O1` [amcinafal]: 152%.
In the case of `CC[N+](CC)(CC)CCOc1cccc(OCC[N+](CC)(CC)CC)c1OCC[N+](CC)(CC)CC` [gallamine triethiodide], the percent viability is 137% and 157%.
Consider `CSc1ccc2c(c1)C(N1CCN(C)CC1)Cc1ccccc1S2` (centres undefined), for which the percent viability is 25.7%.
In the case of `CC1NC(=O)COC1c1ccccc1` (centres undefined) [fenmetramide] it was 285%; in that of `CC(=O)OCC(=O)[C@@]1(O)CC[C@H]2[C@@H]3CCC4=CC(=O)CC[C@]4(C)[C@H]3C(=O)C[C@@]21C` [Cortisone acetate], 281%.
With `CN(CCOc1ccc(NS(C)(=O)=O)cc1)CCc1ccc(NS(C)(=O)=O)cc1` [dofetilide], the percent viability turned out to be 207%.
Next, `CNS(=O)(=O)Cc1ccc2[nH]cc(CCN(C)C)c2c1`: 195%.
Next, `CCn1cc(C(=O)O)c(=O)c2ccc(C)nc21` [nalidixic acid]: 175%; `CC[C@@]1(O)C(=O)OCc2c1cc1n(c2=O)Cc2cc3c(CN(C)C)c(O)ccc3nc2-1` [topotecan]: 47.6%; `C1COC(NC(C2CC2)C2CC2)=N1` [rilmenidine]: 124%.
In the case of `CCCCC[C@](C)(O)/C=C/[C@@H]1[C@@H](C/C=C\CCCC(=O)O)[C@@H](O)C[C@H]1O` [carboprost] it was 346%.
For `CC(C)=CCC/C(C)=C/CC/C(C)=C/C=C/C(C)=C/C(=O)O` [peretinoin], the percent viability worked out at 248%.
Next, `CCCc1cc(=O)[nH]c(=S)[nH]1` [propylthiouracil]: 40.2%; `Nc1ccc(S(=O)(=O)Nc2ccnn2-c2ccccc2)cc1` [sulfaphenazole]: 271%; `CN(C)CCc1c[nH]c2ccc(C[C@H]3COC(=O)N3)cc12` [zolmitriptan]: 208%.
Next, `CCN(CC)CCOC(=O)N(c1ccccc1)c1ccccc1` [dicarfen]: 162%.
In the case of `C[C@@H]1CC[C@@]2(OC1)O[C@H]1C[C@H]3[C@@H]4CC[C@H]5C[C@@H](O[C@@H]6O[C@H](CO)[C@@H](O[C@@H]7O[C@H](CO)[C@@H](O)[C@H](O)[C@H]7O)[C@H](O)[C@H]6O)CC[C@]5(C)[C@H]4CC[C@]3(C)[C@H]1[C@@H]2C` [tiqueside] it was 56.6%; in that of `CN[C@H]1CC[C@@H](c2ccc(Cl)c(Cl)c2)c2ccccc21`, 361%.
With `CCOc1ccccc1OCCN[C@H](C)Cc1ccc(OC)c(S(N)(=O)=O)c1` [tamsulosin], the percent viability is 187% and 165%.
Next, `CCCCC(CC)COC(=O)c1ccccc1O` (centres undefined): 126%; `CNCC(=O)N[C@@H](CCCNC(=N)N)C(=O)N[C@H](C(=O)N[C@@H](Cc1ccc(O)cc1)C(=O)N[C@H](C(=O)N[C@@H](Cc1cnc[nH]1)C(=O)N1CCC[C@H]1C(=O)N[C@@H](C)C(=O)O)C(C)C)C(C)C` [saralasin]: 130%; `CS(=O)(=O)NC(=O)CCC/C=C\C[C@H]1C(=O)C[C@@H](O)[C@@H]1/C=C/[C@@H](O)COc1ccccc1` [sulprostone]: 67.9%.
In the case of `CC=CC1=C(C(=O)O)N2C(=O)[C@@H](NC(=O)[C@H](N)c3ccc(O)cc3)[C@H]2SC1` [Cefprozil] it was 307%.
Consider `CC1(C)Oc2ccc(C#N)cc2[C@H](N2CCCC2=O)[C@H]1O` [cromakalim], for which the percent viability came out at 143%.
Next, `O=C(CCCN1CCC(O)(c2ccc(Cl)cc2)CC1)c1ccc(F)cc1` [haloperidol]: 161% and 208%; `O=C(O)CCCCC1CCSS1` (centres undefined): 179%.
In the case of `Clc1ccccc1C(c1ccccc1)(c1ccccc1)n1ccnc1` [clotrimazole] it was 63.8%.
Next, `COC(=O)N[C@H](C(=O)N[C@@H](Cc1ccccc1)[C@@H](O)CN(Cc1ccc(-c2ccccn2)cc1)NC(=O)[C@@H](NC(=O)OC)C(C)(C)C)C(C)(C)C` [atazanavir]: 282%.
Regarding `CS(=O)(=O)c1ccc2c(c1)N(CCCN1CCC(C(N)=O)CC1)c1ccccc1S2` [metopimazine], the percent viability amounted to 165%.
In the case of `CCN(CC)CCCCCCNc1cc(OC)cc2c(C)ccnc12` [sitamaquine] it was 158%; in that of `CCC(=O)O[C@]1(C(=O)CCl)[C@@H](C)C[C@H]2[C@@H]3CCC4=CC(=O)C=C[C@]4(C)[C@@]3(F)[C@@H](O)C[C@@]21C`, 240%.
Next, `COc1cc(C(=S)N2CCOCC2)ccc1O` [vanitiolide]: 137%.
